Assay results: publication PMC6298406

By UniProt entry, the sequences of proteins in these tests, tags left out. Residues count along the entry.
UniProt O14763, residues 56-440: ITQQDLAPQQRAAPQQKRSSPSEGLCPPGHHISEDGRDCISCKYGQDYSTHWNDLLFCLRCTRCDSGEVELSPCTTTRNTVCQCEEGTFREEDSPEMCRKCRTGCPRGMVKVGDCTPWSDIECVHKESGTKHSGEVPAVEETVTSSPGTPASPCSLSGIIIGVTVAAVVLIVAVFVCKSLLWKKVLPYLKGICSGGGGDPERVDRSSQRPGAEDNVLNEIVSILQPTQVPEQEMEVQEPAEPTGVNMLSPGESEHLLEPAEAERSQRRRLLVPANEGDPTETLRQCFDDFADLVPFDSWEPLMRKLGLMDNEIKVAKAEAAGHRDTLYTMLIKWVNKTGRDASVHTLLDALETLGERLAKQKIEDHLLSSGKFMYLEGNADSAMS
UniProt P55060: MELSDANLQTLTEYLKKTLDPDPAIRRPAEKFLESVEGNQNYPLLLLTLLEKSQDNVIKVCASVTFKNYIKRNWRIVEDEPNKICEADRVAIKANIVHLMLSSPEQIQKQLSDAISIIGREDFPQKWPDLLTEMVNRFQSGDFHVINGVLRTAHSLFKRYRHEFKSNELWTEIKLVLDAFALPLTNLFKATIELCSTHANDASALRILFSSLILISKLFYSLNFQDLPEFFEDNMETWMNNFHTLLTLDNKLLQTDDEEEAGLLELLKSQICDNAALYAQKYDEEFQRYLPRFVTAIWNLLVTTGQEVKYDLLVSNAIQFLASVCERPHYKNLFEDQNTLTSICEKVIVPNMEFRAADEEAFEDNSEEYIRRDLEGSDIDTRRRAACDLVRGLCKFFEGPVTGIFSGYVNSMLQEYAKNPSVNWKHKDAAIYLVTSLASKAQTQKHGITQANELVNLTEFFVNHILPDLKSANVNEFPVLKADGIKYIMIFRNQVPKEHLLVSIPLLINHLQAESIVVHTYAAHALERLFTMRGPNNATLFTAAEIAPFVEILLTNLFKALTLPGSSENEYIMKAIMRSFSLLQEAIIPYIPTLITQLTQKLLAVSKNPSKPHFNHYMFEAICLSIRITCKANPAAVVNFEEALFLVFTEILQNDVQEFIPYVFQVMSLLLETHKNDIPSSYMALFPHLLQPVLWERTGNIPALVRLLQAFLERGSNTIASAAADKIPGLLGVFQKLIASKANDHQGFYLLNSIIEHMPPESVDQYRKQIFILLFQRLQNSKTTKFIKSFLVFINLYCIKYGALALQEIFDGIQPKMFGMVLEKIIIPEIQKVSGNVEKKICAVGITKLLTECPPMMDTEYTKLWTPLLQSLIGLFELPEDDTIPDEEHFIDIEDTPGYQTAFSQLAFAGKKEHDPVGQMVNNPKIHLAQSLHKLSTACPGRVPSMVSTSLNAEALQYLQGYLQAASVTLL
UniProt P08238: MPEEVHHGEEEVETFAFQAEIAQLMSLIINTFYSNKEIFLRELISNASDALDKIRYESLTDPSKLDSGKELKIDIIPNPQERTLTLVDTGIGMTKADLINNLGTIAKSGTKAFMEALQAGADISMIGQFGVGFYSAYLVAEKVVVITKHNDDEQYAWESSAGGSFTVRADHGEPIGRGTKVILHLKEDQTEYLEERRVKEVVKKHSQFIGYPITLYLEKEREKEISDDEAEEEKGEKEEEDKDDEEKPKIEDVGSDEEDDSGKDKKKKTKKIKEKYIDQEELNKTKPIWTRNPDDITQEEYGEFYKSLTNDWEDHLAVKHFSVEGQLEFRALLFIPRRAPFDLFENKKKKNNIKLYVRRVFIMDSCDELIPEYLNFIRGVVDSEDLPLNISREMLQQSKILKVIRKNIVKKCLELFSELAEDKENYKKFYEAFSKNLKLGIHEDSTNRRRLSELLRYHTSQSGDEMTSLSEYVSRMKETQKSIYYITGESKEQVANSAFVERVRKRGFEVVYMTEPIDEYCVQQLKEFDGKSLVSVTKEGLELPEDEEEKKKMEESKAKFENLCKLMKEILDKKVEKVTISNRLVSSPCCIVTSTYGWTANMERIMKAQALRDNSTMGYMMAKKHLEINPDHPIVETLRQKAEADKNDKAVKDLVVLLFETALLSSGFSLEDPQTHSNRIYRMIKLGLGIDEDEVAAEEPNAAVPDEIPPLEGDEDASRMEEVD

Biological target: Strep-tagged DR5 fusion protein (UniProt O14763)
Assay: affinity purification with mass spectrometry; co-IP of Strep-DR5 protein complexes from transfected 293T cells with an anti-DR5 monoclonal antibody; SDS-PAGE, silver staining, labelled bands identified by MS

With Exportin-2 (from UniProt P55060 1-971) the binding was “binds”.
For “Heat shock protein 90 (HSP 90-beta) (from UniProt P08238 1-724)”, the binding was “binds”.

Results are given in words; binding and its absence hold for the method and conditions named. Binding seen in cells or lysates may run through a third protein. These calls come from enrichment with a bait or labelling near it, and not all partners need be listed.
